# From the supplement of paper PMC8728848
# This is one part of the list.
# B1: PX14375D-bvu-513-34-513 (Bacteroides vulgatus) (protein)
# chain: TEDTFWKDETDFNLALTSCYTPLKNALNGGYYGTRGVMLRIARADEVDFRNDISDVYTVNRFTNSNTNSLTQGMFYQFYNALYRTNSIMQKLEEKKEQFSTDFQNSVKGECLFIRGFYLFQLAKEFKDAPLRLTASQSPSTFPLAKSSQADIWAQAKEDLKTAASLLPITNKIGKPTQGAAYAALGKIYVYEENWQEAINVLEPLTQNPYTYKLVEDFNWNFDDTHENNAESIFELLIEDVGGTDLWGDGENINSTQSNTRPKEYAAAEVGGWYEANPTQQIMDIFWKEKDKDGNFDYRARCSVAWDYEGCTYYQRPFREVFAQDKWKTYWILKYQNWKTQKDEPAPPKSFINERAIRYADVLLMLAEAYMNKGALDTSIGYINQIRRRANLNDYSGPITKEGVFEDLVHQRAIEFFVEGERFYDLRRWGLLEQTLKTCDDTRYKNYQTGKSDNINKFNYFPIPAKELDTNPLCTPSEGW
# What was measured:
# Assay in all cases: glycan array binding signal (z-score within array); higher = stronger binding
# Conditions in all cases: glycan notation: IUPAC condensed, linker removed
# [1] = molecular target: GlcNAc(b1-3)Gal(b1-4)Glc
# In short: (§1)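 The binding signal is a Z-score computed within each array and averaged over linkers. Arrays of the same protein sequence at different concentrations or buffers were also averaged together. Data originate from 3228 arrays in the Consortium for Functional Glycomics database, kept only where the protein sequence was available.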
# [2] = molecular target: GlcNAc(b1-3)Gal(b1-4)GlcNAc
# In short: as §1
# [3] = molecular target: GlcNAc(b1-3)Gal(b1-4)GlcNAc(b1-2)Man(a1-3)[GlcNAc(b1-3)Gal(b1-4)GlcNAc(b1-2)Man(a1-6)]Man(b1-4)GlcNAc(b1-4)GlcNAc
# In short: as §1
# [4] = molecular target: GlcNAc(b1-3)Gal(b1-4)GlcNAc(b1-2)Man(a1-3)[GlcNAc(b1-3)Gal(b1-4)GlcNAc(b1-2)Man(a1-6)]Man(b1-4)GlcNAc(b1-4)[Fuc(a1-6)]GlcNAc
# In short: as §1
# [5] = molecular target: GlcNAc(b1-3)Gal(b1-4)GlcNAc(b1-2)[GlcNAc(b1-3)Gal(b1-4)GlcNAc(b1-6)]Man(a1-6)[GlcNAc(b1-3)Gal(b1-4)GlcNAc(b1-2)Man(a1-3)]Man(b1-4)GlcNAc(b1-4)GlcNAc
# In short: as §1
# [6] = molecular target: GlcNAc(b1-3)Gal(b1-4)GlcNAc(b1-3)Gal(b1-4)GlcNAc
# In short: as §1
# [7] = molecular target: GlcNAc(b1-3)Gal(b1-4)GlcNAc(b1-3)Gal(b1-4)GlcNAc(b1-2)Man(a1-3)[GlcNAc(b1-3)Gal(b1-4)GlcNAc(b1-3)Gal(b1-4)GlcNAc(b1-2)Man(a1-6)]Man(b1-4)GlcNAc(b1-4)GlcNAc
# In short: as §1
# [8] = molecular target: GlcNAc(b1-3)Gal(b1-4)GlcNAc(b1-3)Gal(b1-4)GlcNAc(b1-2)Man(a1-3)[GlcNAc(b1-3)Gal(b1-4)GlcNAc(b1-3)Gal(b1-4)GlcNAc(b1-2)Man(a1-6)]Man(b1-4)GlcNAc(b1-4)[Fuc(a1-6)]GlcNAc
# In short: as §1
# [9] = molecular target: GlcNAc(b1-3)Gal(b1-4)GlcNAc(b1-3)Gal(b1-4)GlcNAc(b1-2)[GlcNAc(b1-3)Gal(b1-4)GlcNAc(b1-3)Gal(b1-4)GlcNAc(b1-6)]Man(a1-6)[GlcNAc(b1-3)Gal(b1-4)GlcNAc(b1-3)Gal(b1-4)GlcNAc(b1-2)Man(a1-3)]Man(b1-4)GlcNAc(b1-4)[Fuc(a1-6)]GlcNAc
# In short: as §1
# [10] = molecular target: GlcNAc(b1-3)Gal(b1-4)GlcNAc(b1-3)Gal(b1-4)GlcNAc(b1-3)Gal(b1-4)GlcNAc(b1-2)Man(a1-3)[GlcNAc(b1-3)Gal(b1-4)GlcNAc(b1-3)Gal(b1-4)GlcNAc(b1-3)Gal(b1-4)GlcNAc(b1-2)Man(a1-6)]Man(b1-4)GlcNAc(b1-4)GlcNAc
# In short: as §1
# [11] = molecular target: GlcNAc(b1-3)Gal(b1-4)GlcNAc(b1-3)Gal(b1-4)GlcNAc(b1-3)Gal(b1-4)GlcNAc(b1-2)Man(a1-3)[GlcNAc(b1-3)Gal(b1-4)GlcNAc(b1-3)Gal(b1-4)GlcNAc(b1-3)Gal(b1-4)GlcNAc(b1-2)Man(a1-6)]Man(b1-4)GlcNAc(b1-4)[Fuc(a1-6)]GlcNAc
# In short: as §1
# [12] = molecular target: GlcNAc(b1-3)Gal(b1-4)GlcNAc(b1-3)Gal(b1-4)GlcNAc(b1-3)Gal(b1-4)GlcNAc(b1-2)[GlcNAc(b1-3)Gal(b1-4)GlcNAc(b1-3)Gal(b1-4)GlcNAc(b1-3)Gal(b1-4)GlcNAc(b1-6)]Man(a1-6)[GlcNAc(b1-3)Gal(b1-4)GlcNAc(b1-3)Gal(b1-4)GlcNAc(b1-3)Gal(b1-4)GlcNAc(b1-2)Man(a1-3)]Man(b1-4)GlcNAc(b1-4)[Fuc(a1-6)]GlcNAc
# In short: as §1
# [13] = molecular target: GlcNAc(b1-3)Gal(b1-4)GlcNAc(b1-3)Gal(b1-4)GlcNAc(b1-3)Gal(b1-4)GlcNAc(b1-3)Gal(b1-4)GlcNAc(b1-2)Man(a1-3)[GlcNAc(b1-3)Gal(b1-4)GlcNAc(b1-3)Gal(b1-4)GlcNAc(b1-3)Gal(b1-4)GlcNAc(b1-3)Gal(b1-4)GlcNAc(b1-2)Man(a1-6)]Man(b1-4)GlcNAc(b1-4)GlcNAc
# In short: as §1
# [14] = molecular target: GlcNAc(b1-3)Gal(b1-4)GlcNAc(b1-3)Gal(b1-4)GlcNAc(b1-3)Gal(b1-4)GlcNAc(b1-3)Gal(b1-4)GlcNAc(b1-2)Man(a1-3)[GlcNAc(b1-3)Gal(b1-4)GlcNAc(b1-3)Gal(b1-4)GlcNAc(b1-3)Gal(b1-4)GlcNAc(b1-3)Gal(b1-4)GlcNAc(b1-2)Man(a1-6)]Man(b1-4)GlcNAc(b1-4)[Fuc(a1-6)]GlcNAc
# In short: as §1
# [15] = molecular target: GlcNAc(b1-3)Gal(b1-4)GlcNAc(b1-3)Gal(b1-4)GlcNAc(b1-3)Gal(b1-4)GlcNAc(b1-3)Gal(b1-4)GlcNAc(b1-2)[GlcNAc(b1-3)Gal(b1-4)GlcNAc(b1-3)Gal(b1-4)GlcNAc(b1-3)Gal(b1-4)GlcNAc(b1-3)Gal(b1-4)GlcNAc(b1-6)]Man(a1-6)[GlcNAc(b1-3)Gal(b1-4)GlcNAc(b1-3)Gal(b1-4)GlcNAc(b1-3)Gal(b1-4)GlcNAc(b1-3)Gal(b1-4)GlcNAc(b1-2)Man(a1-3)]Man(b1-4)GlcNAc(b1-4)[Fuc(a1-6)]GlcNAc
# In short: as §1
# [16] = molecular target: GlcNAc(b1-3)Gal(b1-4)GlcNAc(b1-3)Gal(b1-4)GlcNAc(b1-3)GalNAc
# In short: as §1
# [17] = molecular target: GlcNAc(b1-3)Gal(b1-4)GlcNAc(b1-3)GalNAc
# In short: as §1
# [18] = molecular target: GlcNAc(b1-3)Gal(b1-4)GlcNAc(b1-3)[GlcNAc(b1-3)Gal(b1-4)GlcNAc(b1-3)]GalNAc
# In short: as §1
# [19] = molecular target: GlcNAc(b1-3)Gal(b1-4)GlcNAc(b1-6)[Gal(b1-3)]GalNAc
# In short: as §1
# [20] = molecular target: GlcNAc(b1-3)Gal(b1-4)GlcNAc(b1-6)[GlcNAc(b1-3)Gal(b1-3)]GalNAc
# In short: as §1
# [21] = molecular target: GlcNAc(b1-3)Gal(b1-4)GlcNAc(b1-6)[GlcNAc(b1-3)]Gal(b1-4)GlcNAc
# In short: as §1
# [22] = molecular target: GlcNAc(b1-3)GalNAc
# In short: as §1
# [23] = molecular target: GlcNAc(b1-3)Man
# In short: as §1
# [24] = molecular target: GlcNAc(b1-3)[GlcNAc(b1-4)][GlcNAc(b1-6)]GlcNAc
# In short: as §1
# [25] = molecular target: GlcNAc(b1-3)[GlcNAc(b1-6)]Gal(b1-4)GlcNAc
# In short: as §1
# [26] = molecular target: GlcNAc(b1-3)[GlcNAc(b1-6)]GalNAc
# In short: as §1
# [27] = molecular target: GlcNAc(b1-4)Gal(b1-4)GlcNAc
# In short: as §1
# [28] = molecular target: GlcNAc(b1-4)GlcNAc
# In short: as §1
# [29] = molecular target: GlcNAc(b1-4)GlcNAc(b1-4)GlcNAc
# In short: as §1
# [30] = molecular target: GlcNAc(b1-4)GlcNAc(b1-4)GlcNAc(b1-4)GlcNAc(b1-4)GlcNAc
# In short: as §1
# [31] = molecular target: GlcNAc(b1-4)GlcNAc(b1-4)GlcNAc(b1-4)GlcNAc(b1-4)GlcNAc(b1-4)GlcNAc
# In short: as §1
# [32] = molecular target: GlcNAc(b1-4)[GlcNAc(b1-6)]GalNAc
# In short: as §1
# [33] = molecular target: GlcNAc(b1-6)Gal(b1-4)GlcNAc
# In short: as §1
# [34] = molecular target: GlcNAc(b1-6)GalNAc
# In short: as §1
# [35] = molecular target: GlcNAc6S(b1-3)Gal(b1-4)GlcNAc
# In short: as §1
# [36] = molecular target: Kdn(a2-3)Gal(b1-3)GalNAc
# In short: as §1
# [37] = molecular target: Kdn(a2-3)Gal(b1-3)GlcNAc
# In short: as §1
binder,measurement,setting,value
B1,glycan array binding signal (z-score),[1],-0.384
same,glycan array binding signal (z-score),[2],-0.373
same,glycan array binding signal (z-score),[3],-0.381
same,glycan array binding signal (z-score),[4],1.56
same,glycan array binding signal (z-score),[5],0.185
same,glycan array binding signal (z-score),[6],0.08
same,glycan array binding signal (z-score),[7],0.722
same,glycan array binding signal (z-score),[8],1.62
same,glycan array binding signal (z-score),[9],0.276
same,glycan array binding signal (z-score),[10],-0.714
same,glycan array binding signal (z-score),[11],0.902
same,glycan array binding signal (z-score),[12],2.65
same,glycan array binding signal (z-score),[13],-0.04
same,glycan array binding signal (z-score),[14],0.697
same,glycan array binding signal (z-score),[15],0.771
same,glycan array binding signal (z-score),[16],-0.787
same,glycan array binding signal (z-score),[17],1.06
same,glycan array binding signal (z-score),[18],-0.891
same,glycan array binding signal (z-score),[19],-0.274
same,glycan array binding signal (z-score),[20],0.929
same,glycan array binding signal (z-score),[21],-0.578
same,glycan array binding signal (z-score),[22],-0.787
same,glycan array binding signal (z-score),[23],0.196
same,glycan array binding signal (z-score),[24],-1.1
same,glycan array binding signal (z-score),[25],-0.517
same,glycan array binding signal (z-score),[26],-0.467
same,glycan array binding signal (z-score),[27],-0.613
same,glycan array binding signal (z-score),[28],0.164
same,glycan array binding signal (z-score),[29],0.257
same,glycan array binding signal (z-score),[30],-1.21
same,glycan array binding signal (z-score),[31],-0.078
same,glycan array binding signal (z-score),[32],-0.077
same,glycan array binding signal (z-score),[33],-0.889
same,glycan array binding signal (z-score),[34],0.355
same,glycan array binding signal (z-score),[35],-0.865
same,glycan array binding signal (z-score),[36],-0.481
same,glycan array binding signal (z-score),[37],-0.5

# Some of the entries above, set out differently.
binder | measurement | setting | value
B1 | glycan array binding signal (z-score) | [5] | 0.185
same | glycan array binding signal (z-score) | [6] | 0.08
